# Assay results taken from US9278924B2, “5-nonyloxytryptamine and related intracellular PH acidifiers for the treatment and prevention of cancer” (THE JOHNS HOPKINS UNIVERSITY, priority 2011, dated 2016).
# At least one compound was matched to its structure with a doubt left.
# Test system: GBM neurosphere lines
# Test: cAMP GLO assay of cellular cAMP levels
# Assay type: cell-based
# Conditions: three GBM neurosphere lines
# Text: In this assay cAMP levels are inversely correlated with luminescence (RLU). Cyanopindolol is a Gα antagonist and is required for detection of 5HTR1B activity. Sumatriptan, another 5HTR1B agonist (similar to 5-NOTO), and forskolin {a known Gα agonist) were used as controls.
# The Serotonin Receptors 5HTR1B and 5HTR1A are Not the Target Of 5-NOTO Action in GBM. 5-NOTO is not an FDA approved drug but its biological target is known. 5-NOTO is a specific agonist for the 5HTR1B serotonin receptor (400 times more specific for 5HTR1B then for 5HTR1A). 5HTR1B (as well as other 5HTR1 isoforms) are heterotrimeric G-protein coupled receptors which interact with Gα an inhibitor of adenylate cyclase. Therefore, we sought to determine if treatment with 5-NOTO will result in decreased cellular cAMP levels as activation of Gα should inhibit adenylate cydase, the enzyme which catalyzes the conversion of ATP to cAMP. To this end, cells were treated with cyanopindolol, an antagonist of 5HTR1B, which should increase adenylate cyclase activity (if 5HTR1B is functional), and either 5-NOTO or sumatriptan, the latter being similar to 5-NOTO, activating both 5HTR1B and 5HTR1A. […] Importantly, sumatriptan also had no effect on cellular cAMP levels, strengthening the notion that 5HTR1B (and likely 5HTR1A) have very little to no effect on cellular cAMP levels in the GBM models.
smiles,measurement,value
C=C[C@@]1(C)CC(=O)[C@]2(O)[C@@]3(C)[C@@H](O)CCC(C)(C)[C@@H]3[C@H](O)[C@H](OC(C)=O)[C@@]2(C)O1 [Forskolin],effect on cellular cAMP levels,increased cellular cAMP levels dramatically and significantly
